Reference: patent US9284325B2, “Spectinamides as anti-tuberculosis agents” (UNIVERSITY OF TENNESSEE RESEARCH FOUNDATION, priority 2009, dated 2016)
Counter-ions that a name gives are not always drawn. Some entries share one result that the patent states for a list of compounds.

Tested on: M. tuberculosis drug-resistant strains and mutants
Assay type: cell-based, Mycobacterium tuberculosis

CN[C@@H]1[C@H](O)[C@H](NC)C2O[C@]3(O)C(OC2[C@H]1O)O[C@H](C)C[C@H]3NC(=O)Cc1ccccn1 (stereo partly drawn) [Compound 1329, 3′-Dihydro-3′-deoxy-4(R)-(pyridin-2yl)acetylamino spectinomycin Dihydrochloride]
MICs against two stable high-level resistant mutants: > 200 µg/mL

CN[C@@H]1[C@H](O)[C@H](NC)[C@H]2O[C@@]3(O)C(=O)C[C@@H](C)O[C@H]3O[C@@H]2[C@H]1O [Spectinomycin, reference compound]
MICs against two stable high-level resistant mutants: > 200 µg/mL
